# Laboratory results reported in paper PMC8027081, “Structural Basis of VSIG3: The Ligand for VISTA” (Frontiers in Immunology, 2021).
# Amino acid sequences for entries named in this document (tags omitted). A change or cut given only in a name is not applied to a line headed by its entry.
# UniProt Q9H7M9: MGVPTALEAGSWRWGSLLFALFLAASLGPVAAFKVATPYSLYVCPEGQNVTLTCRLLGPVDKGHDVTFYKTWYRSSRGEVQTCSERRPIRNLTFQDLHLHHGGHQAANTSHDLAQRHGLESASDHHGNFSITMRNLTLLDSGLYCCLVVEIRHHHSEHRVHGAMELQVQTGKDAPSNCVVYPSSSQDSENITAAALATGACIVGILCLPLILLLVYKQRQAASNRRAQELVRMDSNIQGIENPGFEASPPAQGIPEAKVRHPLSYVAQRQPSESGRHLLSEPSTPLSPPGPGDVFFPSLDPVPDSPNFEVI
# These are yes or no findings as the source states them, for the method shown. Binding can be weak; no strength is given.
# B1: human VSIG3 extracellular domain (residues 23-241) expressed in E. coli, refolded (domain or fragment, UniProt Q5DX21 23-241, looked up)
# chain: LEVSESPGSIQVARGQPAVLPCTFTTSAALINLNVIWMVTPLSNANQPEQVILYQGGQMFDGAPRFHGRVGFTGTMPATNVSIFINNTQLSDTGTYQCLVNNLPDIGGRNIGVTGLTVLVPPSAPHCQIQGSQDIGSDVILLCSSEEGIPRPTYLWEKLDNTLKLPPTATQDQVQGTVTIRNISALSSGLYQCVASNAIGTSTCLLDLQVISPQPRNIG
# notes: VSIG3 (IgSF11), human, UniProt Q5DX21, residues 23-241 (extracellular domain without the 22-residue signal peptide); No PDB id is printed; also called VSIG3-ECD; IgSF11; not shown: His tag (from the vector pET28a)
# How the values were obtained:
# [1] = biological target: recombinant VISTA (human) (UniProt Q9H7M9); test: ELISA; functional ELISA binding assay of CHO-expressed VSIG3-ECD and recombinant VISTA; both purified
# [2] = biological target: recombinant VISTA (human) (UniProt Q9H7M9); test: ELISA; binding of VSIG3/VISTA with different concentrations of a VSIG3 antibody; both purified
binder,measurement,setting,value
B1,binding,[1],binds
same,binding,[2],binds
